In the supplement of paper PMC12067093, “Discovery and optimisation of a covalent ligand for TRIM25 and its application to targeted protein ubiquitination” (Chemical Science, 2025):
Some of the results follow.

Amino acid sequences for entries named in this document (tags omitted). A change or cut given only in a name is not applied to a line headed by its entry.
UniProt O95218: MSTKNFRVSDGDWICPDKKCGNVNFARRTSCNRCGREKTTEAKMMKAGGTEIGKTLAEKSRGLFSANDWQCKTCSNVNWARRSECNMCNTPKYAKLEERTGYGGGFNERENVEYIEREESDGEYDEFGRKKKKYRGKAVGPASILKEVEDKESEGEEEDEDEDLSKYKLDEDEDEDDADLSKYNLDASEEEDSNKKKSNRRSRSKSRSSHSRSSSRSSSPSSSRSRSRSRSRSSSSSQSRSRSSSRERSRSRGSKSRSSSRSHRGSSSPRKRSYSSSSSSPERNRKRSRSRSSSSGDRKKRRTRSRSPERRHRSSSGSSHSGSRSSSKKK
UniProt Q15942: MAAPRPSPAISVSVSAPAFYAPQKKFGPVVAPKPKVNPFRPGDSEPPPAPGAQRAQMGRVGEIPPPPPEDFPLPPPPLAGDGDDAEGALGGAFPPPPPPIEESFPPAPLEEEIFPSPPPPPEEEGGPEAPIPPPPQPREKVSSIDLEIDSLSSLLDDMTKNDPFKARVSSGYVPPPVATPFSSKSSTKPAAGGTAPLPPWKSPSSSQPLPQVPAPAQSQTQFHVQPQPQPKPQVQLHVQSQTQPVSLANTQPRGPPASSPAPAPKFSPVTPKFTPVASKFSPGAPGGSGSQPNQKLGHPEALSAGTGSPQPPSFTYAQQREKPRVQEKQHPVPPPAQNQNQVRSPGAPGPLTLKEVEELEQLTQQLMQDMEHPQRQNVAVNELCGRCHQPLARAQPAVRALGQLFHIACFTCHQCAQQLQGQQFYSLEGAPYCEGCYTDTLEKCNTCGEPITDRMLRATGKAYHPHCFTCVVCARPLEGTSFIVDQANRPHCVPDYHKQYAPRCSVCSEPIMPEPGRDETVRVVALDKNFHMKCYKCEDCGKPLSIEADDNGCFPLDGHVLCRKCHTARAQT
UniProt Q9H900: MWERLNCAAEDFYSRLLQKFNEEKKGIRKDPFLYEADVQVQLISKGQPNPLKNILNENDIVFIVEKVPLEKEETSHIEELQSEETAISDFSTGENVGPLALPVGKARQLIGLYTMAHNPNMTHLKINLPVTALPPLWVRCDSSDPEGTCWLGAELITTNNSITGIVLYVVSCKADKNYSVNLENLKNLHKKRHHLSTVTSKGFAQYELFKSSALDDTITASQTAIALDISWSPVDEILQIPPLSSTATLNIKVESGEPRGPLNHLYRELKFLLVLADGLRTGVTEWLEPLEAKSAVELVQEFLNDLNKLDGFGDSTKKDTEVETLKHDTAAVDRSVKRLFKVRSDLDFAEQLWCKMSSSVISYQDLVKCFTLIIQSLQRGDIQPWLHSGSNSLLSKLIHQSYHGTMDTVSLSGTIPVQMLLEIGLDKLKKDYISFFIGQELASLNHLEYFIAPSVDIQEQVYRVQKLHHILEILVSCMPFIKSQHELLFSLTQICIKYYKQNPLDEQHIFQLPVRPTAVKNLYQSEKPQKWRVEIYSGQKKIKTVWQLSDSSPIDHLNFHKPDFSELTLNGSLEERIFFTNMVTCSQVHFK
UniProt Q9Y5V0: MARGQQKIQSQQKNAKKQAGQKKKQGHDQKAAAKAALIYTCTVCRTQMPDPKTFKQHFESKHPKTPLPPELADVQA
UniProt O43149: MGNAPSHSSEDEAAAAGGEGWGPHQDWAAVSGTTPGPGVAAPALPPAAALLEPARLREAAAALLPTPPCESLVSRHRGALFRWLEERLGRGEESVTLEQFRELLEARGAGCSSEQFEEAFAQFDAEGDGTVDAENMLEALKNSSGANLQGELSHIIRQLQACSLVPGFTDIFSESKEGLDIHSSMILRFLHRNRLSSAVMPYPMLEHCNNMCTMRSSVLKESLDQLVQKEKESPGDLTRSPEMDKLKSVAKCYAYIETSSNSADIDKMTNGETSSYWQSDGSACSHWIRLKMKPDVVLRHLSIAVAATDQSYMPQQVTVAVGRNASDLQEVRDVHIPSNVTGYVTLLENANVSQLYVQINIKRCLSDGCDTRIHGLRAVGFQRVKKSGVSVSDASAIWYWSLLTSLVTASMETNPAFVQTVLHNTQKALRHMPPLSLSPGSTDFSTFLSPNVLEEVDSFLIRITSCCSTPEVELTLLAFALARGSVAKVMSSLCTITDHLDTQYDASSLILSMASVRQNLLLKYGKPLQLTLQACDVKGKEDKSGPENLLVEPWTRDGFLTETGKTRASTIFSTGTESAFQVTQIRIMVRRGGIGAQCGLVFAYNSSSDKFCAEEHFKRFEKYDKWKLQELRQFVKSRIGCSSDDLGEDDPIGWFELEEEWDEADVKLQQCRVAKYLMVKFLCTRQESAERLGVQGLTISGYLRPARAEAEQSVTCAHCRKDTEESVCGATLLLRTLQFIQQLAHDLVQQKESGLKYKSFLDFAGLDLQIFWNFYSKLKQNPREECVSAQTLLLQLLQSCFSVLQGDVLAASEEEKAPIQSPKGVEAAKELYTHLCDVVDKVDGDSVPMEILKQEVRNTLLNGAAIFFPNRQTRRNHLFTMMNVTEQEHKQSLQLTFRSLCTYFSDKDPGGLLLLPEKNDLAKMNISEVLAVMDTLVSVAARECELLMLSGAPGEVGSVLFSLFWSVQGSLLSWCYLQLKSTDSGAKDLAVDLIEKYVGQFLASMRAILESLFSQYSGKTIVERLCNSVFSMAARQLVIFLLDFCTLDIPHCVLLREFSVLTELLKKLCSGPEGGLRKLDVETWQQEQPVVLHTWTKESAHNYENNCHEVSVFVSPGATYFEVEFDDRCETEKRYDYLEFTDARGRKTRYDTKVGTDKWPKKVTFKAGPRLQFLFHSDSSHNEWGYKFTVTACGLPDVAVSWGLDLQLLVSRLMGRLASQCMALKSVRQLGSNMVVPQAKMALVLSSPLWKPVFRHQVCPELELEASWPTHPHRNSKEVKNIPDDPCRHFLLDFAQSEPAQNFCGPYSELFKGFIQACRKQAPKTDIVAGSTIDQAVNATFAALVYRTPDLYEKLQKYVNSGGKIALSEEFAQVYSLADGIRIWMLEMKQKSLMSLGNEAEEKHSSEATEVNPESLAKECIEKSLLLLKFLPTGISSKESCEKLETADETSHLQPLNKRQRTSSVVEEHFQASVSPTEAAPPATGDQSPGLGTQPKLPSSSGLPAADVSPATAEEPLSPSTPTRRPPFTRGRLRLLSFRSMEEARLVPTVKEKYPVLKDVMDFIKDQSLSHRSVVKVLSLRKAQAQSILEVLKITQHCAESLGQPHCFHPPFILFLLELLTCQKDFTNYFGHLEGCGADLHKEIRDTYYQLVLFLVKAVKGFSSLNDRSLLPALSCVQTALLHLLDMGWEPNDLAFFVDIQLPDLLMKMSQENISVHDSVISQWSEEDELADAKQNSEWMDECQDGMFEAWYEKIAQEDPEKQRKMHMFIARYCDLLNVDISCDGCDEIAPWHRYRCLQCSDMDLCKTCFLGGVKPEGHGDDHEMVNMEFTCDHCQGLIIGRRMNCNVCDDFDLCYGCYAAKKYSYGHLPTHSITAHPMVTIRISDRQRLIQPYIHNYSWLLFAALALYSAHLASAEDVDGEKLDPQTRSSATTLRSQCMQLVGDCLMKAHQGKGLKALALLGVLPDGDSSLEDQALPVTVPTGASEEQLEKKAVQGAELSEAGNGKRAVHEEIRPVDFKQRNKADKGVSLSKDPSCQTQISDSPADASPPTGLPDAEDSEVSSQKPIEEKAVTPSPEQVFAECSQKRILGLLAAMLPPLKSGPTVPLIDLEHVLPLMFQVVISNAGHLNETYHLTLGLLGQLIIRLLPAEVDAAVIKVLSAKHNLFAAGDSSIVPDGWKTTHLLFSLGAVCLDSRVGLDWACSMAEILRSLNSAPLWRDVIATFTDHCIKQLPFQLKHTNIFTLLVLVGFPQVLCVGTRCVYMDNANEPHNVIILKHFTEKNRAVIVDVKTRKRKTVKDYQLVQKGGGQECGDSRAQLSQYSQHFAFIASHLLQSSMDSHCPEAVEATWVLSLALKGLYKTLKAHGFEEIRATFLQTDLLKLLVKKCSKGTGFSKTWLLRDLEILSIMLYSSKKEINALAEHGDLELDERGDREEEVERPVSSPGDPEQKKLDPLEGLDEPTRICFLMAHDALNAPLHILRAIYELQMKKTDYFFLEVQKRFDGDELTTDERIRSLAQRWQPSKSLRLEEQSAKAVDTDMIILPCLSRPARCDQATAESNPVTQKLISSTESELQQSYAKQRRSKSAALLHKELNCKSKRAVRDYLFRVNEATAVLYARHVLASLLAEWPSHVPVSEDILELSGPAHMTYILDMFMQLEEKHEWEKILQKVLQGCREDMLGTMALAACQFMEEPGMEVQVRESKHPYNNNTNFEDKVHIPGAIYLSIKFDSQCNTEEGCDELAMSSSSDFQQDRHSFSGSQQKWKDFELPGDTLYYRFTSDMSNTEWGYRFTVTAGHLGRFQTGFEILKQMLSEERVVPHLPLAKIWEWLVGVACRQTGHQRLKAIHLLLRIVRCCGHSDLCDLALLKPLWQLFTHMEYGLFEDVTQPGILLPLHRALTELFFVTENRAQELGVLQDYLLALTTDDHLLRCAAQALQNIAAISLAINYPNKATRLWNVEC
UniProt Q9P2E3: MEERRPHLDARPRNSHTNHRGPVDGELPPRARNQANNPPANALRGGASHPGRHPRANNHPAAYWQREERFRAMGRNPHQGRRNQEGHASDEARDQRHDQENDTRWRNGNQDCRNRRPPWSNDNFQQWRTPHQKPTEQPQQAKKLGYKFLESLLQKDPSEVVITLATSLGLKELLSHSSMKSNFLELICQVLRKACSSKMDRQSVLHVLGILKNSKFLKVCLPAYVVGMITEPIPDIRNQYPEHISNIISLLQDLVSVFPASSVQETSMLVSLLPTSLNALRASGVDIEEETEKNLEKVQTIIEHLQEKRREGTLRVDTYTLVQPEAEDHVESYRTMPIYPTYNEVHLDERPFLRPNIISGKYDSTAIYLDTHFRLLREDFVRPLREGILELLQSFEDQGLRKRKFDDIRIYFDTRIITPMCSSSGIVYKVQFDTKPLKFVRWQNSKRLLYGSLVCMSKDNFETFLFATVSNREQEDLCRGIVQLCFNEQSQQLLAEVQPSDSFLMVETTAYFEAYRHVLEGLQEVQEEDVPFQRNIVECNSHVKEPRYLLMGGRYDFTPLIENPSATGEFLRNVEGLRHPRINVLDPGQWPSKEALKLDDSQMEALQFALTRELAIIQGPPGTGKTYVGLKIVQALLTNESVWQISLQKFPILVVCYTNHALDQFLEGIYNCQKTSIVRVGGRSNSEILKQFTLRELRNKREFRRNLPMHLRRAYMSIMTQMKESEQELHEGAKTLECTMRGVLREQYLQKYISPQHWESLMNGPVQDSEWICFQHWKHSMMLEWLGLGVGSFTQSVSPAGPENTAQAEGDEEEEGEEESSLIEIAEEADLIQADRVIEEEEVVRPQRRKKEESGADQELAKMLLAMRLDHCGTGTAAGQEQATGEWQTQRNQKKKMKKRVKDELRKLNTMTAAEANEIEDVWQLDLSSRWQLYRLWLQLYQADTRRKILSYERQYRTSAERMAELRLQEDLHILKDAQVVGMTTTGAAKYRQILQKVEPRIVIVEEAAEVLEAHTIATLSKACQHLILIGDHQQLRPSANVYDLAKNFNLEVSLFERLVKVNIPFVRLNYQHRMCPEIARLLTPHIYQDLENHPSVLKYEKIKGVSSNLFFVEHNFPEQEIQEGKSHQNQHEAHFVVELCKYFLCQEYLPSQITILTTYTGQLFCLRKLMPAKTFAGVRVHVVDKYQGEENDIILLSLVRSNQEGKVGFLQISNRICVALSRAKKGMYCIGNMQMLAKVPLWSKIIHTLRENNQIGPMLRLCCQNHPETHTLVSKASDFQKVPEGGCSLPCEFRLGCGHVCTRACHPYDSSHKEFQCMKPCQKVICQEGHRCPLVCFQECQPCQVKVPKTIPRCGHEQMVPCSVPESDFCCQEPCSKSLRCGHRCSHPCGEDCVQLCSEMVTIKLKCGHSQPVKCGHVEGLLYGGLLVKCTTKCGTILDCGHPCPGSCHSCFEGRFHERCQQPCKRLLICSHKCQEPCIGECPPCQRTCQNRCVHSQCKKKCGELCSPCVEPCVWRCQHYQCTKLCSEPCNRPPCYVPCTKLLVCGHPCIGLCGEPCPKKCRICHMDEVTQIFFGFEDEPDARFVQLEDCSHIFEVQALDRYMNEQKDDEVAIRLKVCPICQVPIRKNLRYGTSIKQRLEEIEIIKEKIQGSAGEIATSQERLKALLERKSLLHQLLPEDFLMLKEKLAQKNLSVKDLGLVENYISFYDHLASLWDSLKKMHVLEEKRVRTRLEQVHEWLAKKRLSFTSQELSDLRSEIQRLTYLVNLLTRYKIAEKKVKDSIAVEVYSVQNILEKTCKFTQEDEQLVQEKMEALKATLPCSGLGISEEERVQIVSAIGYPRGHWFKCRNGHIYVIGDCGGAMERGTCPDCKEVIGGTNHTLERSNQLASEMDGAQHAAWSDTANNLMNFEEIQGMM

Compound: CC1Cc2ccccc2N1C(=O)C1CCCN(C1)C(=O)CCl (mixture of isomers) [TRIM25 ligand 11 (diastereomer mixture)]
Assay: probe-labelled cysteine peptide fold change vs DMSO (competition) (log2 fold change); higher = less target engagement (more negative = stronger competition)
Settings: THP-1, incubation time: 4 h
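Note: competitive chemoproteomic profiling in live THP-1 cells with an iodoacetamide desthiobiotin (IA-DTB) probe, comparing probe-labelled peptide intensities in compound-treated cells against DMSO-treated controls.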

| Target | probe-labelled cysteine peptide fold change (10 µM) | probe-labelled cysteine peptide fold change (50 µM) |
| --- | --- | --- |
| ZRANB2_O95218_20_CGNVNFAR (UniProt O95218) | -0.125 | -0.11 |
| ZNF784_Q8NCA9_301_THFHGPGPGLGDSGGQLGSSAAEGSGSGCGVGDPAEEGRGETAK (UniProt Q8NCA9) | -0.0244 | -0.0853 |
| ZYX_Q15942_444+447_CNTCGEPITDR (UniProt Q15942) | -0.164 | -0.00315 |
| ZYX_Q15942_537+540_CEDCGKPLSIEADDNGCFPLDGHVLCR (UniProt Q15942) | -0.102 | -0.0602 |
| ZRANB2_O95218_15_VSDGDWICPDKK (UniProt O95218) | -0.131 | -0.0344 |
| ZWILCH_Q9H900_354_SDLDFAEQLWCK (UniProt Q9H900) | 0.176 | -0.00549 |
| ZYX_Q15942_467+470+473_AYHPHCFTCVVCAR (UniProt Q15942) | -0.241 | -0.3 |
| ZNF706_Q9Y5V0_44_AALIYTCTVCR (UniProt Q9Y5V0) | -0.155 | 0.148 |
| ZW10_O43264_346_NCLVYSIPTNSSK (UniProt O43264) | -0.0105 | 0.193 |
| ZZEF1_O43149_2466_ICFLMAHDALNAPLHILR (UniProt O43149) | -0.0256 | 0.00418 |
| ZYX_Q15942_540+553+562_CEDCGKPLSIEADDNGCFPLDGHVLCR (UniProt Q15942) | -0.241 | -0.194 |
| ZWILCH_Q9H900_585_IFFTNMVTCSQVHFK (UniProt Q9H900) | 0.0233 | 0.107 |
| ZW10_O43264_650_LGIVWQDVLPVNIYCK (UniProt O43264) | 0.0783 | 0.0695 |
| ZYX_Q15942_553+562_CEDCGKPLSIEADDNGCFPLDGHVLCR (UniProt Q15942) | -0.307 | -0.21 |
| ZRANB2_O95218_85_RSECNMCNTPK (UniProt O95218) | -0.125 | -0.22 |
| ZNFX1_Q9P2E3_539_NIVECNSHVK (UniProt Q9P2E3) | 0.0145 | -0.127 |
| ZYX_Q15942_537+540+553_CEDCGKPLSIEADDNGCFPLDGHVLCR (UniProt Q15942) | -0.0901 | -0.207 |
| ZYX_Q15942_553_PLSIEADDNGCFPLDGHVLCR (UniProt Q15942) | 0.0845 | 0.0573 |
| ZYX_Q15942_540+562_CEDCGKPLSIEADDNGCFPLDGHVLCR (UniProt Q15942) | -0.0469 | -0.249 |

A second format for part of the listing above.
Target,probe-labelled cysteine peptide fold change (10 µM),probe-labelled cysteine peptide fold change (50 µM)
ZNF706_Q9Y5V0_44_AALIYTCTVCR (UniProt Q9Y5V0),-0.155,0.148
ZW10_O43264_346_NCLVYSIPTNSSK (UniProt O43264),-0.0105,0.193
ZZEF1_O43149_2466_ICFLMAHDALNAPLHILR (UniProt O43149),-0.0256,0.00418
ZYX_Q15942_540+553+562_CEDCGKPLSIEADDNGCFPLDGHVLCR (UniProt Q15942),-0.241,-0.194
ZWILCH_Q9H900_585_IFFTNMVTCSQVHFK (UniProt Q9H900),0.0233,0.107
ZW10_O43264_650_LGIVWQDVLPVNIYCK (UniProt O43264),0.0783,0.0695
ZYX_Q15942_553+562_CEDCGKPLSIEADDNGCFPLDGHVLCR (UniProt Q15942),-0.307,-0.21
ZRANB2_O95218_85_RSECNMCNTPK (UniProt O95218),-0.125,-0.22
ZNFX1_Q9P2E3_539_NIVECNSHVK (UniProt Q9P2E3),0.0145,-0.127
ZYX_Q15942_537+540+553_CEDCGKPLSIEADDNGCFPLDGHVLCR (UniProt Q15942),-0.0901,-0.207
ZYX_Q15942_553_PLSIEADDNGCFPLDGHVLCR (UniProt Q15942),0.0845,0.0573

Following part:

| Target | probe-labelled cysteine peptide fold change (10 µM) | probe-labelled cysteine peptide fold change (50 µM) |
| --- | --- | --- |
| ZNF692_Q9BU19_235_LLPSPVTCTPK (UniProt Q9BU19) | -0.149 | -0.243 |
| ZNFX1_Q9P2E3_1292_VPEGGCSLPCEFR (UniProt Q9P2E3) | -0.109 | -0.373 |
| ZNF787_Q6DD87_376_AGGEEEDDDDEAAGGRCPECR (UniProt Q6DD87) | -0.195 | -0.0682 |
| ZW10_O43264_568_LAPILCDGTATFVDLVPGFR (UniProt O43264) | 0.117 | 0.00333 |
| ZWILCH_Q9H900_7_LNCAAEDFYSR (UniProt Q9H900) | 0.0467 | 0.0431 |
| ZYX_Q15942_447_CNTCGEPITDR (UniProt Q15942) | 0.164 | 0.167 |
| ZNF746_Q6NUN9_518_CFTRPAHLIR (UniProt Q6NUN9) | -0.0514 | 0.023 |
| ZNHIT6_Q9NWK9_181_EELMHGECVK (UniProt Q9NWK9) | 0.188 | -0.242 |
| ZNHIT3_Q15649_30_VPYCSVVCFR (UniProt Q15649) | -0.153 | -0.142 |
| ZNRF1_Q8ND25_202_LPCLCIYHK (UniProt Q8ND25) | -0.139 | -0.17 |
| ZNFX1_Q9P2E3_1860_NGHIYVIGDCGGAMER (UniProt Q9P2E3) | -0.0816 | -0.0183 |
| ZYX_Q15942_384_QNVAVNELCGR (UniProt Q15942) | -0.145 | -0.319 |
| ZRANB2_O95218_31_RTSCNR (UniProt O95218) | -0.11 | -0.0859 |
| ZYX_Q15942_504+507_CSVCSEPIMPEPGRDETVR (UniProt Q15942) | 0.0308 | -0.145 |
| ZNFX1_Q9P2E3_1288_VPEGGCSLPCEFR (UniProt Q9P2E3) | 0.0473 | -0.139 |
| ZYG11B_Q9C0D3_386_NHPMNLPVQLAASACVFNLTK (UniProt Q9C0D3) | -0.118 | -0.118 |
| ZYX_Q15942_504_CSVCSEPIMPEPGR (UniProt Q15942) | -0.16 | -0.12 |
| ZW10_O43264_124_QLQEFSTAIEEYNCALTEK (UniProt O43264) | -0.047 | -0.177 |
| ZNHIT2_Q9UHR6_188_VLGDVPGACTPVVPTR (UniProt Q9UHR6) | 0.127 | -0.0875 |
